Some of these results come from one statement about several compounds together.
Key:
Assay type in all cases: in vivo
[1] = system: barley scald fungus (Rhynchosporium secalis); test: Barley scald control test, foliar spray on barley (Test Example 14); conditions: 200 ppm, barley (MIKAMO GOLDEN), inoculated two days after spraying
[2] = system: cucumber powdery mildew fungus (Sphaerotheca fuliginea); test: Cucumber powdery mildew control test, foliar spray on cucumber (Test Examples 6, 12, Comparative Test Example); conditions: cucumber (SAGAMI HANJIRO), 8 days after inoculation
[3] = system: barley net blotch fungus (Pyrenophora teres); test: Barley net blotch control test, foliar spray on barley (Test Examples 3, 9); conditions: barley (MIKAMO GOLDEN), inoculated two days after spraying
[4] = system: kidney bean stem rot fungus (Sclerotinia sclerotiorum); test: Kidney bean stem rot control test, foliar spray on kidney bean (Test Examples 4, 10); conditions: 500 ppm, kidney bean (NAGAUZURA INGEN), four days after inoculation
[5] = system: wheat leaf blotch fungus (Septoria tritici); test: Wheat leaf blotch control test, foliar spray on wheat (Test Examples 5, 11); conditions: wheat (APOGEE), inoculated four days after spraying

Measured: area of lesion spots relative to that on an untreated plant

CC(=NOCc1c(C)cccc1-n1nnn(C)c1=O)c1cccc(C(F)(F)F)c1 [present compound 7, 1-{3-methyl-2-[1-(3-trifluoromethylphenyl)ethylideneaminooxymethyl]phenyl}-4-methyl-1,4-dihydrotetrazol-5-one]
≤ 30%: [1] | [2]; 500 ppm | [3]; 500 ppm | [4] | [5]; 500 ppm

CC(=NOCc1c(Cl)cccc1-n1nnn(C)c1=O)c1cccc(OC(F)(F)C(F)F)c1 [present compound 9, 1-(3-chloro-2-{1-[3-(1,1,2,2-tetrafluoroethoxyl)phenyl]ethylideneaminooxymethyl]phenyl}-4-methyl-1,4-dihydrotetrazol-5-one]
≤ 30%: [1] | [2]; 500 ppm | [3]; 500 ppm | [4] | [5]; 500 ppm

CC(=NOCc1c(Cl)cccc1-n1nnn(C)c1=O)c1cc(C)cc(C)c1 [present compound 10, 1-{3-chloro-2-[1-(3,5-dimethylphenyl)ethylideneaminooxymethyl]phenyl}-4-methyl-1,4-dihydrotetrazol-5-one]
≤ 30%: [1] | [2]; 500 ppm | [3]; 200 ppm | [4] | [5]; 500 ppm

CC(=NOCc1c(Cl)cccc1-n1nnn(C)c1=O)c1cccc(OC(F)F)c1 [present compound 11, 1-{3-chloro-2-[1-(3-difluoromethoxyphenyl)ethylideneaminooxymethyl]phenyl}-4-methyl-1,4-dihydrotetrazol-5-one]
≤ 30%: [1] | [2]; 500 ppm | [3]; 500 ppm | [4] | [5]; 500 ppm

COc1cccc(-n2nnn(C)c2=O)c1CON=C(C)c1cccc(C(F)(F)F)c1 [present compound 12, 1-{3-methoxy-2-[1-(3-trifluoromethylphenyl)ethylideneaminooxymethyl]phenyl}-4-methyl-1,4-dihydrotetrazol-5-one]
≤ 30%: [1] | [2]; 500 ppm | [3]; 500 ppm | [4] | [5]; 500 ppm

CC(=NOCc1c(Cl)cccc1-n1nnn(C)c1=O)c1cccc(Cl)c1 [present compound 16, 1-{3-chloro-2-[1-(3-chlorophenyl)ethylideneaminooxymethyl]phenyl}-4-methyl-1,4-dihydrotetrazol-5-one]
≤ 30%: [1] | [2]; 500 ppm | [3]; 500 ppm | [4] | [5]; 500 ppm

CC(=NOCc1c(Cl)cccc1-n1nnn(C)c1=O)c1cccc(C)c1 [present compound 17, 1-{3-chloro-2-[1-(3-methylphenyl)ethylideneaminooxymethyl]phenyl}-4-methyl-1,4-dihydrotetrazol-5-one]
≤ 30%: [1] | [2]; 500 ppm | [3]; 500 ppm | [4] | [5]; 500 ppm

CC(=NOCc1c(Cl)cccc1-n1nnn(C)c1=O)c1ccc2c(c1)CCC2 [present compound 19, 1-{3-chloro-2-[1-(indan-5-yl)ethylideneaminooxymethyl]phenyl}-4-methyl-1,4-dihydrotetrazol-5-one]
≤ 30%: [1] | [2]; 500 ppm | [3]; 500 ppm | [4] | [5]; 500 ppm

CC(=NOCc1c(Cl)cccc1-n1nnn(C)c1=O)c1ccc(C(F)(F)F)cc1 [present compound 27, 1-{3-chloro-2-[1-(4-trifluoromethylphenyl)ethylideneaminooxymethyl]phenyl}-4-methyl-1,4-dihydrotetrazol-5-one]
≤ 30%: [1] | [2]; 500 ppm | [3]; 200 ppm | [4] | [5]; 200 ppm

CCc1cccc(-n2nnn(C)c2=O)c1CON=C(C)c1cccc(C(F)(F)F)c1 [present compound 30, 1-{3-ethyl-2-[1-(3-trifluoromethylphenyl)ethylideneaminooxymethyl]phenyl}-4-methyl-1,4-dihydrotetrazol-5-one]
≤ 30%: [1] | [2]; 500 ppm | [3]; 500 ppm | [4] | [5]; 500 ppm

CC(=NOCc1c(C)cccc1-n1nnn(C)c1=O)c1cccc(Cl)c1 [present compound 31, 1-{3-methyl-2-[1-(3-chlorophenyl)ethylideneaminooxymethyl]phenyl}-4-methyl-1,4-dihydrotetrazol-5-one]
≤ 30%: [1] | [2]; 500 ppm | [3]; 500 ppm | [4] | [5]; 500 ppm

CC(=NOCc1c(C)cccc1-n1nnn(C)c1=O)c1cccc(OC(F)(F)F)c1 [present compound 32, 1-{3-methyl-2-[1-(3-trifluoromethoxyphenyl)ethylideneaminooxymethyl]phenyl}-4-methyl-1,4-dihydrotetrazol-5-one]
≤ 30%: [1] | [2]; 500 ppm | [3]; 500 ppm | [4] | [5]; 500 ppm

COc1cccc(C(C)=NOCc2c(C)cccc2-n2nnn(C)c2=O)c1 [present compound 34, 1-{3-methyl-2-[1-(3-methoxyphenyl)ethylideneaminooxymethyl]phenyl}-4-methyl-1,4-dihydrotetrazol-5-one]
≤ 30%: [1] | [2]; 500 ppm | [3]; 500 ppm | [4] | [5]; 500 ppm

CC(=NOCc1c(C)cccc1-n1nnn(C)c1=O)c1ccc2c(c1)CCC2 [present compound 35, 1-{3-methyl-2-[1-(indan-5-yl)ethylideneaminooxymethyl]phenyl}-4-methyl-1,4-dihydrotetrazol-5-one]
≤ 30%: [1] | [2]; 500 ppm | [3]; 500 ppm | [4] | [5]; 500 ppm

CC(=NOCc1c(C)cccc1-n1nnn(C)c1=O)c1cc(Cl)cc(Cl)c1 [present compound 39, 1-{3-methyl-2-[1-(3,5-dichlorophenyl)ethylideneaminooxymethyl]phenyl}-4-methyl-1,4-dihydrotetrazol-5-one]
≤ 30%: [1] | [2]; 500 ppm | [3]; 500 ppm | [4] | [5]; 500 ppm

COc1cccc(-n2nnn(C)c2=O)c1CON=C(C)c1cccc(OC(F)(F)F)c1 [present compound 42, 1-{3-methoxy-2-[1-(3-trifluoromethoxyphenyl)ethylideneaminooxymethyl]phenyl}-4-methyl-1,4-dihydrotetrazol-5-one]
≤ 30%: [1] | [2]; 200 ppm | [3]; 500 ppm | [4] | [5]; 500 ppm

COc1cccc(C(C)=NOCc2c(OC)cccc2-n2nnn(C)c2=O)c1 [present compound 44, 1-{3-methoxy-2-[1-(3-methoxyphenyl)ethylideneaminooxymethyl]phenyl}-4-methyl-1,4-dihydrotetrazol-5-one]
≤ 30%: [1] | [2]; 500 ppm | [3]; 500 ppm | [4] | [5]; 500 ppm

COc1cccc(-n2nnn(C)c2=O)c1CON=C(C)c1ccc2c(c1)CCC2 [present compound 46, 1-{3-methoxy-2-[1-(indan-5-yl)ethylideneaminooxymethyl]phenyl}-4-m ethyl-1,4-dihydrotetrazol-5-one]
≤ 30%: [1] | [2]; 500 ppm | [3]; 500 ppm | [4] | [5]; 500 ppm

From patent US9725423B2, “Tetrazolinone compound and applications thereof” (SUMITOMO CHEMICAL COMPANY, LIMITED, priority 2012, dated 2017)
